In brackets after ≈: the same amount, converted by molar mass.
Tested on: Staphylococcus aureus
Test: microbe, parasite or virus in culture
Settings: 1199B, 18 h

O=C(O)c1cn(C2CC2)c2cc(N3CCNCC3)c(F)cc2c1=O [CIPROFLOXACIN]
MIC: 8 µg/mL (≈ 24.1 µM)

From ChEMBL document CHEMBL1142529 (2008)
